# Measured values from patent US20220267422A1.
# Sequences of proteins named here, by UniProt entry; tags and fusion partners are left off. Residues count along the entry.
# UniProt Q9UKY0, residues 26-152: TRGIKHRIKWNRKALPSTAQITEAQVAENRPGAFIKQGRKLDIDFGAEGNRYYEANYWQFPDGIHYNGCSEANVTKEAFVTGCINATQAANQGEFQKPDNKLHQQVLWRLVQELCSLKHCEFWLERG
# These are yes or no findings as the source states them, for the method shown. Some results given as binding are weak or reduced against the parent protein; the word gives no strength.
# Target: human doppel on human tumor endothelial cells (human) (UniProt Q9UKY0)
# Experiment: flow cytometry on HCTEC (human colonic tumor endothelial cells), fluorescent secondary antibody; no control bar and no antibody concentration shown
binder,measurement,value
"Human monoclonal antibody E9 (antibody, human IgG1, kappa, V domains shown) VH: QVQLVQSGAEVKKPGSSVKVSCKASGGTFSSYYMHWVRQAPGQGLEWMGRISPGGGGTIYAQKFQGRVTITADESTSTAYMELSSLRSEDTAVYYCARAQSEGLSYYFDVWGQGTLVTVSS VL: DIQMTQSPSSLSASVGDRVTITCRASQSIRNYLNWYQQKPGKAPKLLIYAASNLQSGVPSRFSGSGSGTDFTLTISSLQPEDFATYYCQQSSSFPLTFGQGTKVEIKR",binding,binds
